Data from publication PMC4894940, “The function of the two-pore channel TPC1 depends on dimerization of its carboxy-terminal helix” (Cellular and Molecular Life Sciences: CMLS, 2016).
No constants are given. Whether binding was seen depends on the method and setting. For some of these results: Binding seen in cells or lysates may run through a third protein. Some binding calls cover weakened binding; strength is not graded here. For some of these results: Tags and fused reporters may be left off the sequences shown.

Tests used:
[1] = target: TPC1-3LP (L714, L715 and L719 to proline), full-length, C-terminally fused to the Venus halves (Arabidopsis thaliana) (UniProt Q94KI8); test: split reporter; Split Venus BiFC; Agrobacterium C58C1 strains with helper strain p19 co-infiltrated into N. benthamiana leaves; confocal microscopy and plate-reader fluorescence of leaf disks 2.5 days after infiltration
[2] = target: Soluble C-terminus of TPC1 (amino acids 673-733) fused to GFP, N-terminally 6xMyc- or FLAG-tagged (Arabidopsis thaliana) (UniProt Q94KI8); test: co-IP; HEK293T cells co-transfected; lysis buffer 10 mM HEPES, 150 mM NaCl, 1 % Nonidet P40, 5 % glycerol, pH 7.4; precipitation with anti-c-Myc 9E10 and protein G Dynabeads at 4 °C; western blot with anti-Myc or anti-Flag
[3] = target: Soluble C-terminus of TPC1-3LP (amino acids 673-733) fused to GFP, N-terminally 6xMyc- or FLAG-tagged (Arabidopsis thaliana) (UniProt Q94KI8); test: as above
[4] = target: Synthetic 3LA mutant CTH peptide (residues 707-723 of TPC1 with L714A, L715A, L719A) (Arabidopsis thaliana); test: MST; label-free MST; 750 nM tryptophane-containing target peptide in PBS pH 7.5, 1 % DMSO, 0.1 % Pluronic, unlabeled ligand peptide varied from 3 nM to 100 µM, 25 °C, Monolith NT.labelfree; monomer to dimer; both purified

B1: TPC1-3LP (L714, L715 and L719 to proline), full-length, C-terminally fused to the Venus halves (protein, UniProt Q94KI8 1-733)
chain: MEDPLIGRDSLGGGGTDRVRRSEAITHGTPFQKAAALVDLAEDGIGLPVEILDQSSFGESARYYFIFTRLDLIWSLNYFALLFLNFFEQPLWCEKNPKPSCKDRDYYYLGELPYLTNAESIIYEVITLAILLVHTFFPISYEGSRIFWTSRLNLVKVACVVILFVDVLVDFLYLSPLAFDFLPFRIAPYVRVIIFILSIRELRDTLVLLSGMLGTYLNILALWMLFLLFASWIAFVMFEDTQQGLTVFTSYGATLYQMFILFTTSNNPDVWIPAYKSSRWSSVFFVLYVLIGVYFVTNLILAVVYDSFKEQLAKQVSGMDQMKRRMLEKAFGLIDSDKNGEIDKNQCIKLFEQLTNYRTLPKISKEEFGLIFDELDDTRDFKINKDEFADLCQAIALRFQKEEVPSLFEHFPQIYHSALSQQLRAFVRSPNFGYAISFILIINFIAVVVETTLDIEESSAQKPWQVAEFVFGWIYVLEMALKIYTYGFENYWREGANRFDFLVTWVIVIGETATFITPDENTFFSNGEWIRYLLLARMLRLIRLLMNVQRYRAFIATFITLIPSLMPYLGTIFCVLCIYCSIGVQVFGGLVNAGNKKLFETELAEDDYLLFNFNDYPNGMVTLFNLLVMGNWQVWMESYKDLTGTWWSITYFVSFYVITILLLLNLVVAFVLEAFFTELDLEEEEKCQGQDSQEKRNRRRSAGSKSRSQRVDTPPHHMPGDELSKPECSTSDT
binding [1]: binds

B2: Soluble C-terminus of TPC1 (amino acids 673-733) fused to GFP, N-terminally 6xMyc- or FLAG-tagged (domain or fragment, UniProt Q94KI8 673-733)
chain: EAFFTELDLEEEEKCQGQDSQEKRNRRRSAGSKSRSQRVDTLLHHMLGDELSKPECSTSDT
binding [2]: binds

B3: Soluble C-terminus of TPC1-3LP (amino acids 673-733) fused to GFP, N-terminally 6xMyc- or FLAG-tagged (domain or fragment, UniProt Q94KI8 673-733)
chain: EAFFTELDLEEEEKCQGQDSQEKRNRRRSAGSKSRSQRVDTPPHHMPGDELSKPECSTSDT
binding [3]: binds

RSQRVDTAAHHMAGDEL [Synthetic 3LA mutant CTH peptide (residues 707-723 of TPC1 with L714A, L715A, L719A)]
binding [4]: no binding (tested: 3 nM to 100 µM)
